# Source: the supplement of paper PMC8728848
# The other results are listed elsewhere or left out.
# Tests used:
# Experiment in all cases: glycan array binding signal (z-score within array); higher = stronger binding
# Settings in all cases: glycan notation: IUPAC condensed, linker removed
# [1] = target: Fuc(a1-2)[Gal(a1-3)]Gal(b1-4)GlcNAc(b1-2)Man(a1-3)[Fuc(a1-2)[Gal(a1-3)]Gal(b1-4)GlcNAc(b1-2)Man(a1-6)]Man(b1-4)GlcNAc(b1-4)GlcNAc
# In short: (§1)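 Columns mapping to the same glycan were averaged after glycan names were converted to IUPAC-condensed notation. The data come from 3228 arrays in the Consortium for Functional Glycomics database, limited to those with an available protein sequence. Binding is reported as a within-array Z-score averaged across arrays of one protein sequence and across linkers.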
# [2] = target: Fuc(a1-2)[Gal(a1-3)]Gal(b1-4)GlcNAc(b1-2)Man(a1-3)[Fuc(a1-2)[Gal(a1-3)]Gal(b1-4)GlcNAc(b1-2)Man(a1-6)]Man(b1-4)GlcNAc(b1-4)[Fuc(a1-6)]GlcNAc
# In short: as §1
# [3] = target: Fuc(a1-2)[Gal(a1-3)]Gal(b1-4)GlcNAc(b1-3)GalNAc
# In short: as §1
# [4] = target: Fuc(a1-2)[Gal(a1-3)]Gal(b1-4)GlcNAc(b1-3)[Fuc(a1-2)[Gal(a1-3)]Gal(b1-4)GlcNAc(b1-6)]GalNAc
# In short: as §1
# [5] = target: Fuc(a1-2)[Gal(a1-3)]Gal(b1-4)GlcNAc(b1-6)GalNAc
# In short: as §1
# [6] = target: Fuc(a1-2)[Gal(a1-3)]Gal(b1-4)[Fuc(a1-3)]Glc
# In short: as §1
# [7] = target: Fuc(a1-2)[Gal(a1-3)]Gal(b1-4)[Fuc(a1-3)]GlcNAc
# In short: as §1
# [8] = target: Fuc(a1-2)[Gal(a1-3)]Gal(b1-4)[Fuc(a1-3)]GlcNAc(b1-3)GalNAc
# In short: as §1
# [9] = target: Fuc(a1-2)[Gal(a1-4)]Gal(b1-4)GlcNAc
# In short: as §1
# [10] = target: Fuc(a1-2)[GalNAc(a1-3)]Gal
# In short: as §1
# [11] = target: Fuc(a1-2)[GalNAc(a1-3)]Gal(b1-3)GalNAc(a1-3)[Fuc(a1-2)]Gal(b1-4)GlcNAc
# In short: as §1
# [12] = target: Fuc(a1-2)[GalNAc(a1-3)]Gal(b1-3)GalNAc(b1-3)Gal(a1-4)Gal(b1-4)Glc
# In short: as §1
# [13] = target: Fuc(a1-2)[GalNAc(a1-3)]Gal(b1-3)GlcNAc
# In short: as §1
# [14] = target: Fuc(a1-2)[GalNAc(a1-3)]Gal(b1-3)GlcNAc(b1-2)Man(a1-3)[Fuc(a1-2)[GalNAc(a1-3)]Gal(b1-3)GlcNAc(b1-2)Man(a1-6)]Man(b1-4)GlcNAc(b1-4)GlcNAc
# In short: as §1
# [15] = target: Fuc(a1-2)[GalNAc(a1-3)]Gal(b1-3)GlcNAc(b1-2)Man(a1-3)[Fuc(a1-2)[GalNAc(a1-3)]Gal(b1-3)GlcNAc(b1-2)Man(a1-6)]Man(b1-4)GlcNAc(b1-4)[Fuc(a1-6)]GlcNAc
# In short: as §1
# [16] = target: Fuc(a1-2)[GalNAc(a1-3)]Gal(b1-3)GlcNAc(b1-3)GalNAc
# In short: as §1
# [17] = target: Fuc(a1-2)[GalNAc(a1-3)]Gal(b1-3)GlcNAc(b1-6)GalNAc
# In short: as §1
# [18] = target: Fuc(a1-2)[GalNAc(a1-3)]Gal(b1-4)Glc
# In short: as §1
# [19] = target: Fuc(a1-2)[GalNAc(a1-3)]Gal(b1-4)GlcNAc
# In short: as §1
# [20] = target: Fuc(a1-2)[GalNAc(a1-3)]Gal(b1-4)GlcNAc(b1-2)Man
# In short: as §1
# [21] = target: Fuc(a1-2)[GalNAc(a1-3)]Gal(b1-4)GlcNAc(b1-2)Man(a1-3)[Fuc(a1-2)[GalNAc(a1-3)]Gal(b1-4)GlcNAc(b1-2)Man(a1-6)]Man(b1-4)GlcNAc(b1-4)GlcNAc
# In short: as §1
# [22] = target: Fuc(a1-2)[GalNAc(a1-3)]Gal(b1-4)GlcNAc(b1-2)Man(a1-3)[Fuc(a1-2)[GalNAc(a1-3)]Gal(b1-4)GlcNAc(b1-2)Man(a1-6)]Man(b1-4)GlcNAc(b1-4)[Fuc(a1-6)]GlcNAc
# In short: as §1
# [23] = target: Fuc(a1-2)[GalNAc(a1-3)]Gal(b1-4)GlcNAc(b1-3)Gal(b1-4)GlcNAc
# In short: as §1
# [24] = target: Fuc(a1-2)[GalNAc(a1-3)]Gal(b1-4)GlcNAc(b1-3)Gal(b1-4)GlcNAc(b1-3)Gal(b1-4)GlcNAc
# In short: as §1
# [25] = target: Fuc(a1-2)[GalNAc(a1-3)]Gal(b1-4)GlcNAc(b1-3)GalNAc
# In short: as §1
# [26] = target: Fuc(a1-2)[GalNAc(a1-3)]Gal(b1-4)GlcNAc(b1-3)[Fuc(a1-2)[GalNAc(a1-3)]Gal(b1-4)GlcNAc(b1-6)]GalNAc
# In short: as §1
# [27] = target: Fuc(a1-2)[GalNAc(a1-3)]Gal(b1-4)GlcNAc(b1-6)GalNAc
# In short: as §1
# [28] = target: Fuc(a1-2)[GalNAc(a1-3)]Gal(b1-4)[Fuc(a1-3)]GlcNAc
# In short: as §1
# [29] = target: Fuc(a1-2)[GalNAc(a1-3)]Gal(b1-4)[Fuc(a1-3)]GlcNAc(b1-3)GalNAc
# In short: as §1
# [30] = target: Fuc(a1-2)[GalNAc(a1-4)]Gal(b1-4)GlcNAc
# In short: as §1
# [31] = target: Fuc(a1-2)[GalNAc(b1-3)]Gal
# In short: as §1
# Fuc(a1-3)GlcNAc = target: Fuc(a1-3)GlcNAc
# In short: as §1
# [32] = target: Fuc(a1-3)[Gal(b1-4)]Glc6S
# In short: as §1
# [33] = target: Fuc(a1-3)[Gal(b1-4)]GlcNAc
# In short: as §1
# [34] = target: Fuc(a1-3)[Gal(b1-4)]GlcNAc(b1-2)Man
# In short: as §1
# [35] = target: Fuc(a1-3)[Gal(b1-4)]GlcNAc(b1-2)Man(a1-3)[Fuc(a1-3)[Gal(b1-4)]GlcNAc(b1-2)Man(a1-6)]Man(b1-4)GlcNAc(b1-4)GlcNAc
# In short: as §1
# [36] = target: Fuc(a1-3)[Gal(b1-4)]GlcNAc(b1-2)Man(a1-3)[Fuc(a1-3)[Gal(b1-4)]GlcNAc(b1-2)Man(a1-6)]Man(b1-4)GlcNAc(b1-4)[Fuc(a1-6)]GlcNAc
# In short: as §1
# [37] = target: Fuc(a1-3)[Gal(b1-4)]GlcNAc(b1-3)Gal(b1-3)[Fuc(a1-4)]GlcNAc
# In short: as §1
# [38] = target: Fuc(a1-3)[Gal(b1-4)]GlcNAc(b1-3)Gal(b1-4)[Fuc(a1-3)]GlcNAc
# In short: as §1
# [39] = target: Fuc(a1-3)[Gal(b1-4)]GlcNAc(b1-3)Gal(b1-4)[Fuc(a1-3)]GlcNAc(b1-3)Gal(b1-4)[Fuc(a1-3)]GlcNAc
# In short: as §1
# [40] = target: Fuc(a1-3)[Gal(b1-4)]GlcNAc(b1-3)GalNAc
# In short: as §1
# [41] = target: Fuc(a1-3)[Gal(b1-4)]GlcNAc(b1-6)GalNAc
# In short: as §1
# [42] = target: Fuc(a1-3)[Gal(b1-4)]GlcNAc(b1-6)[Gal(b1-3)GlcNAc(b1-3)]Gal(b1-4)Glc
# In short: as §1
# [43] = target: Fuc(a1-3)[Gal(b1-4)]GlcNAc6S
# In short: as §1
# [44] = target: Fuc(a1-3)[Gal3S(b1-4)]Glc
# In short: as §1
# [45] = target: Fuc(a1-3)[Gal3S(b1-4)]GlcNAc
# In short: as §1
# [46] = target: Fuc(a1-3)[Gal3S(b1-4)]GlcNAc6S
# In short: as §1
# [47] = target: Fuc(a1-3)[GalNAc(b1-4)]GlcNAc
# In short: as §1
# [48] = target: Fuc(a1-3)[GalNAc(b1-4)]GlcNAc6S
# In short: as §1
# Fuc(a1-4)GlcNAc = target: Fuc(a1-4)GlcNAc
# In short: as §1
# Fuc(b1-3)GlcNAc = target: Fuc(b1-3)GlcNAc
# In short: as §1
# Gal(a1-2)Gal = target: Gal(a1-2)Gal
# In short: as §1
# Gal(a1-3)Gal = target: Gal(a1-3)Gal
# In short: as §1
# Gal(a1-3)Gal(b1-3)GlcNAc = target: Gal(a1-3)Gal(b1-3)GlcNAc
# In short: as §1
# [49] = target: Gal(a1-3)Gal(b1-3)GlcNAc(b1-2)Man
# In short: as §1
# [50] = target: Gal(a1-3)Gal(b1-3)GlcNAc(b1-2)Man(a1-3)[Gal(a1-3)Gal(b1-3)GlcNAc(b1-2)Man(a1-6)]Man(b1-4)GlcNAc(b1-4)GlcNAc
# In short: as §1
# [51] = target: Gal(a1-3)Gal(b1-3)GlcNAc(b1-3)GalNAc
# In short: as §1
# [52] = target: Gal(a1-3)Gal(b1-3)GlcNAc(b1-6)GalNAc
# In short: as §1
# [53] = target: Gal(a1-3)Gal(b1-3)[Fuc(a1-4)]GlcNAc(b1-2)Man(a1-3)[Gal(a1-3)Gal(b1-3)[Fuc(a1-4)]GlcNAc(b1-2)Man(a1-6)]Man(b1-4)GlcNAc(b1-4)GlcNAc
# In short: as §1
# Gal(a1-3)Gal(b1-4)Glc = target: Gal(a1-3)Gal(b1-4)Glc
# In short: as §1
binder,measurement,setting,value
Epa20 (Candida glabrata) (protein) MGSSHHHHHHSSGLVPRGSHMASSNIPNNYPLGCSNKYSGHLPGLKMELYSYNYVNPRHPDPQNPGKLDQLYDPNLLGTYECFDSSYKDINYPRVGYKSKTLIGRSDGVSGILNFNFVPPWGCMPQKGQLPPAYNFKSNITLSNFTMILFGYFKPKISGNHIFSLHGDDLIYLNFGAGNAFDCCRQESSADNFGNYQAFSLWGINWEKKTLTVYLDMNTYYPIRIFYNNRDYQAIFNFSFKTEFDSSPVIDFQDYFFFLRDIDGGCPGEV,glycan array binding signal (z-score),[1],-0.252
same,glycan array binding signal (z-score),[2],-0.44
same,glycan array binding signal (z-score),[3],-0.358
same,glycan array binding signal (z-score),[4],0.437
same,glycan array binding signal (z-score),[5],-0.478
same,glycan array binding signal (z-score),[6],-0.597
same,glycan array binding signal (z-score),[7],-0.119
same,glycan array binding signal (z-score),[8],0.657
same,glycan array binding signal (z-score),[9],0.161
same,glycan array binding signal (z-score),[10],-0.452
same,glycan array binding signal (z-score),[11],-0.262
same,glycan array binding signal (z-score),[12],-0.021
same,glycan array binding signal (z-score),[13],0.546
same,glycan array binding signal (z-score),[14],-0.559
same,glycan array binding signal (z-score),[15],-0.462
same,glycan array binding signal (z-score),[16],0.427
same,glycan array binding signal (z-score),[17],-0.607
same,glycan array binding signal (z-score),[18],-0.567
same,glycan array binding signal (z-score),[19],-0.674
same,glycan array binding signal (z-score),[20],-0.81
same,glycan array binding signal (z-score),[21],-0.219
same,glycan array binding signal (z-score),[22],0.021
same,glycan array binding signal (z-score),[23],-0.385
same,glycan array binding signal (z-score),[24],0.348
same,glycan array binding signal (z-score),[25],-0.351
same,glycan array binding signal (z-score),[26],0.032
same,glycan array binding signal (z-score),[27],-0.648
same,glycan array binding signal (z-score),[28],0.484
same,glycan array binding signal (z-score),[29],3.14
same,glycan array binding signal (z-score),[30],-0.503
same,glycan array binding signal (z-score),[31],-0.918
same,glycan array binding signal (z-score),Fuc(a1-3)GlcNAc,-0.482
same,glycan array binding signal (z-score),[32],1.12
same,glycan array binding signal (z-score),[33],-0.386
same,glycan array binding signal (z-score),[34],-0.472
same,glycan array binding signal (z-score),[35],-0.523
same,glycan array binding signal (z-score),[36],0.822
same,glycan array binding signal (z-score),[37],-0.196
same,glycan array binding signal (z-score),[38],1.11
same,glycan array binding signal (z-score),[39],-0.421
same,glycan array binding signal (z-score),[40],0.181
same,glycan array binding signal (z-score),[41],0.842
same,glycan array binding signal (z-score),[42],-0.524
same,glycan array binding signal (z-score),[43],0.648
same,glycan array binding signal (z-score),[44],0.057
same,glycan array binding signal (z-score),[45],-0.133
same,glycan array binding signal (z-score),[46],-0.007
same,glycan array binding signal (z-score),[47],-0.027
same,glycan array binding signal (z-score),[48],0.088
same,glycan array binding signal (z-score),Fuc(a1-4)GlcNAc,-0.229
same,glycan array binding signal (z-score),Fuc(b1-3)GlcNAc,-0.484
same,glycan array binding signal (z-score),Gal(a1-2)Gal,-0.842
same,glycan array binding signal (z-score),Gal(a1-3)Gal,-0.108
same,glycan array binding signal (z-score),Gal(a1-3)Gal(b1-3)GlcNAc,-0.275
same,glycan array binding signal (z-score),[49],-0.058
same,glycan array binding signal (z-score),[50],1.16
same,glycan array binding signal (z-score),[51],-0.255
same,glycan array binding signal (z-score),[52],0.223
same,glycan array binding signal (z-score),[53],0.604
same,glycan array binding signal (z-score),Gal(a1-3)Gal(b1-4)Glc,-0.396
